# Assay results as given in US20120263649A1, “DETECTION OF MYCOBACTERIA” (priority 2009, published 2012).
# The chains behind the UniProt entries cited, without tags or fusion partners. Residues count along the entry.
# UniProt P9WQP3, 44-338: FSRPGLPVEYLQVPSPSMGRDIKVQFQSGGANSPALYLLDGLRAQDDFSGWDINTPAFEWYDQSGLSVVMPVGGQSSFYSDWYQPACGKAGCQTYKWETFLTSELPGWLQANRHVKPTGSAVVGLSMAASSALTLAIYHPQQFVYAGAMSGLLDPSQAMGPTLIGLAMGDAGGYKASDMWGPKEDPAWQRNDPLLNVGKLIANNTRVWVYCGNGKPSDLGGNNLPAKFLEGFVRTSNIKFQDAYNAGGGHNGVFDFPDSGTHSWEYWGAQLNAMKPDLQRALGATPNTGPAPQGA
# UniProt P9WQP1, 41-325: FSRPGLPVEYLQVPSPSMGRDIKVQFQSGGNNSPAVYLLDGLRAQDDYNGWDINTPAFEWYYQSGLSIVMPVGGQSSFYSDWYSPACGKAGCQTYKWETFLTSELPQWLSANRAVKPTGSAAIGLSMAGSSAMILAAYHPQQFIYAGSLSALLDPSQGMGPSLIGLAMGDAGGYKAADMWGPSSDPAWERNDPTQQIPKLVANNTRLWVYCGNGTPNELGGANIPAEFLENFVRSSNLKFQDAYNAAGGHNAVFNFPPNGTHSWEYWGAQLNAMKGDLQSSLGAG
# UniProt P9WQN9, 46-340: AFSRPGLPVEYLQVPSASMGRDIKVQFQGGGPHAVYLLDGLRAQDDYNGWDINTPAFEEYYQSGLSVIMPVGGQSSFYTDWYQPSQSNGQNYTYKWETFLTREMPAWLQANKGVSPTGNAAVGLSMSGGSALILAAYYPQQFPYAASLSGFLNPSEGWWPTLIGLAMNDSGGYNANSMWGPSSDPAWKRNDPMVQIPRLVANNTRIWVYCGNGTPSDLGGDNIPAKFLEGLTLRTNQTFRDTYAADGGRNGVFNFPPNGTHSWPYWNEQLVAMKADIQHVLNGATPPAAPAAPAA
# For at least one compound, name, drawing or mass did not settle the structure.
# Tests used:
# Assay type in all cases: biochemical
# Conditions in all cases: ratio of peak height of mono-hexanoyl ester of labelled/derivatised Tre to peak height of labelled/derivatised Tre; 500 μM di-hexanoyl ester, 500 μM substrate, 100 nM enzyme, 1 mM TEA pH 7.2, 37° C; compound 1 (Tre) = 100
# Ag85A = Ag85A (Mycobacterium tuberculosis, UniProt P9WQP3)
# Ag85B = Ag85B (Mycobacterium tuberculosis, UniProt P9WQP1)
# Ag85C = Ag85C (Mycobacterium tuberculosis, UniProt P9WQN9)
structure (smiles),measurement,setting,value
"OCC1O[C@H](O[C@H]2OC(CO)[C@@H](O)C(O)C2F)C(O)C(O)[C@@H]1O (stereo partly drawn) [Compound 22, α-D-Glucopyranosyl 2-deoxy-2-fluoro-α-D-glucopyranose]","Relative substrate response towards transesterification, Ag85A",Ag85A,115
same,"Relative substrate response towards transesterification, Ag85B",Ag85B,156
same,"Relative substrate response towards transesterification, Ag85C",Ag85C,274
